## Percent effect of library compounds

The chains behind the UniProt entries cited, without tags or fusion partners.
UniProt P9WNZ1, whole entry: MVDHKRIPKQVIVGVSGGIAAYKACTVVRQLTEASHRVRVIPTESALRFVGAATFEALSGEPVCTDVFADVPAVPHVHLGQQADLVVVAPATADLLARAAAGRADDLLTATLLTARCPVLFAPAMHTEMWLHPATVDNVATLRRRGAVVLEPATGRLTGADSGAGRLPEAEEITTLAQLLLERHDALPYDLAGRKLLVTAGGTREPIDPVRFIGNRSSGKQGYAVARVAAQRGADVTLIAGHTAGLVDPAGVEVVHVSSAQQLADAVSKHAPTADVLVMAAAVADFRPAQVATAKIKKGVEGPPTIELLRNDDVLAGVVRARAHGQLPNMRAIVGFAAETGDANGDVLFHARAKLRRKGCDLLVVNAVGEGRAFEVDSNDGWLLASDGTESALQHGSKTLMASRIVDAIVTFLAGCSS

Data taken from ChEMBL document CHEMBL3988442, “University of Dundee, Small-Polar-MMV Screening Library” (2021).

Results are given as percent effect. How 0% and 100% were set is not recorded. Most values in the screen are low, and negative values occur. This is an unselected part of the compounds tested. Two or more numbers in one place are separate tests of the same structure; such repeats can differ widely. A dash means the value is not listed here; it may have been measured.

Leishmania in macrophages: 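Cell assay of Leishmania donovani living inside macrophages; the read-out is not stated. Compounds at 30 µM. Direction is inferred from retests: higher values go with stronger inhibition. About 69,000 compounds were tested under these conditions; 1.5% (about 1,000) showed 50% or more at least once.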
CoaBC: 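Coenzyme A biosynthesis protein CoaBC, Mycobacterium tuberculosis (UniProt P9WNZ1). Enzyme assay of CoaBC with a phosphate dye (Biomol Green) read at 650 nm. Concentration: 30 µM. Direction is inferred from only a few compounds that gave an IC50; most scored high, so higher reads as stronger inhibition. Most strong results did not repeat in a second test. Size under these conditions: about 67,000 compounds, about 40 of them at 50% or above in at least one test.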

structure | Leishmania in macrophages | CoaBC
CC(C)c1nn(C)c(N(C)C)c1CNCc1ccc2c(c1)OCO2 | 13.15 | 1.836
CCOC(=O)CSc1nnc([C@@H](N)C(C)C)o1.Cl | -0.1408 | -
O=C(CN1CCS(=O)(=O)CC1)NC1CCCc2ccccc21 (stereo unspecified) | 16.52 | 3.265
CCN1CC2(CC1=O)CN(C(C)=O)CCN(S(C)(=O)=O)C2 (stereo unspecified) | 11.08 | -
CCN(Cc1noc(CC(C)C)n1)Cc1ccccc1C | 5.017 | 5.433
COc1ccc(-c2n[nH]c(C)c2CC(=O)NCC2CCOCC2)cc1 | 0.3962 | 2.795
[H][C@]12CC[C@]([H])(CN(c3nc(C)nc4ccsc34)C1)[C@@H]2OC | 34.92 | -
Cc1nc(N2CCOCC2)nc(C)c1NC(=O)Cc1ccc(Cl)cc1 | 8.211 & 0.1603 | -7.4
Cn1ccnc1CN1CCN(CCOc2cccc(C#N)c2)CC1 | 27.23 | 2.806
CC(NC(=O)c1cc(-c2cccc(Cl)c2)no1)C(=O)N1CCCC1 (stereo unspecified) | -7.151 | -0.135
Cc1cc(C)n(C2CN(C(=O)Cn3c(C)cc(=O)c4ccccc43)C2)n1 | 17.12 | 0.9828
[H][C@]12CCN(Cc3ccco3)[C@@]1([H])CC[C@H](COCc1ccncc1)O2 | 10.98 | -
CN(C)CCCNCCC(Cc1ccccc1)C1CCOC(C)(C)C1 (stereo unspecified) | - | -1.381
CC1CN(C(=O)NCCCn2cncn2)CCO1 (stereo unspecified) | -11.11 | 2.128
CC(C)(N)C(=O)N1CCCC1c1cncc(Oc2ccccc2)n1 (stereo unspecified) | 20.6 & 1.997 | -4.6
O=C1CC(c2ccc(C(=O)O)cc2)c2ncn(-c3ccccc3)c2N1 (stereo unspecified) | 37.84 | 3.634
Cn1cc(CN2CCN(CC3(c4ccccc4)CC3)CC2)cn1 | - | 2.219
COc1cccc(NC(=O)CN(C(C)C)C2CC2)c1 | -3.01 | -0.2433
Cc1cnccc1N1CCCN(C(=O)CCCn2ccnc2C)CC1 | 26.04 | 3.758
Cc1ccc(C(=O)NS(=O)(=O)Cc2ccc(F)cc2)cc1S(C)(=O)=O | -9.047 | 13.11
CCc1cnc(N2C[C@H]3CCCC(N(C)Cc4ccccn4)[C@H]3C2)nc1 (stereo partly specified) | - | 1.724
O=C(N1CCOCC1)[C@@]12CCO[C@@H]1CCN(Cc1ccccc1F)C2 | - | 4.711
CCn1ccnc1CN1CCN(CCC(=O)NC2CCCCC2)CC1 | 29.74 | 2.813
[H][C@@]12CS(=O)(=O)C[C@]1([H])N(C(=O)c1cccs1)CCN2Cc1[nH]cnc1C | -12.47 | -
O=C(CCc1ccccc1)N1C[C@H]2CCN[C@H]2C1 | - | 3.99
Cc1ccc(C(=O)N2CCC(n3cc(CN)nn3)CC2)cc1F | -11.69 | -37.53
O=C(CCN1CCCCO1)N1CCC(CO)(Cc2ccccc2)CC1 | 6.117 | 8.255
Cc1noc(C)c1C1CCCN1CCC(=O)N1CCc2ccccc2C1 (stereo unspecified) | -8.164 | 0.9662
CCN(CCc1nc2cc(C)ccc2[nH]1)C(=O)[C@@H](N)COC | -3.053 | 8.636
Fc1ccc(-c2nnc(CN3CCCC(Cn4cncn4)C3)o2)cc1 (stereo unspecified) | 17.51 | 6.452
COCCc1noc(CN(C)C2CCCN(c3cccnn3)C2)n1 (stereo unspecified) | -36.88 | 5.682
CN(Cc1cnccn1)C(=O)c1ccc(CSc2nnc[nH]2)o1 | -11.29 | 1.366
CC(=O)N(Cc1ncc(C)o1)C1CCN(CCCc2cnn(C)c2)C1 (stereo unspecified) | -13.87 | 5.606
CS(=O)(=O)N1CCN(c2ccnc(N3CCCC3)n2)CC1 | -14.57 | -1.794
CCC1=N[C@@]2(CC[C@@H]3CN(C(=O)NCC(C)C)C[C@@H]32)C(=O)N1CC(C)C | - | 1.142
COCCN(C)C(=O)c1nc2c(s1)CCCN2c1ncccn1 | 36.85 | -3.268
NC(=O)CCN(C(=O)c1cccc2c1OCO2)c1ccccc1 | 15 | 5.983
COc1ccc(C[C@H]2CN(Cc3ccoc3)CC[C@@H]2OC)cc1.O=C(O)C(F)(F)F | 22.06 | -
COc1ccccc1CCNC(=O)CN1CCCC1c1noc(C)n1 (stereo unspecified) | 13.65 | -7.181
CC(C)(C)NC(=O)CN1CCCN(c2ccc(C#N)cn2)CC1 | 26.98 | 3.254
CCN(c1ccsc1C(=O)N1CCSCC1)S(=O)(=O)c1ccc(Cl)cc1 | 25.02 | 6.997
[H][C@]12CCCC(=O)N[C@@]1(C)CCCCN2C(=O)c1cn2c(C)cccc2n1 | -17.9 & -3.349 | -
CCS(=O)(=O)N1CCC2(CC1)CN(c1cccnc1)C(=O)CO2 | - | 0.9877
O=C(O)c1cc(S(=O)(=O)Nc2ccc(F)cc2F)cc2c1OCCO2 | 18.3 | 7.535
CC(C)c1cc(NC(=O)CN2CCNC(=O)C2)on1 | 20.01 | 3.689
c1cncc(-c2nnc(C3(c4ccc5c(c4)OCO5)CCOCC3)o2)c1 | 11.58 | 0
COC[C@H]1CCC[C@]12CN(CCc1ccccc1)CCO2.O=C(O)C(F)(F)F | 7.206 | -
COc1ccc(NC(=O)CSc2nc(C)c(C)c(C)c2C#N)cn1 | 1.546 | -
Cc1ccc(C(=O)N2C[C@@H]3OCCN(C)[C@@H]3C2)cn1 | - | 6.25
COCCN1CCC(C(=O)N(C)Cc2cccc(Cl)c2)C1 (stereo unspecified) | -18.76 | -0.9828
Cc1cc(C(F)(F)F)n2nc(C3CCCN3C3CCSCC3)cc2n1.O=C(O)CC(O)(CC(=O)O)C(=O)O (stereo unspecified) | 6.877 | -
Cc1ccnc(C2(C)CCCN2S(=O)(=O)c2cccnc2)n1 (stereo unspecified) | 7.466 | 1.726
CCC1=NN2C(=N)/C(=C\c3cccn3-c3ccc(Br)cc3)C(=O)N=C2S1 | 13.29 | -1.976
CC(=O)N1CCC12CCN(Cc1ccco1)CC2 | - | 2.703
CCOC(=O)CNC(=O)N1CCN(c2ncccn2)CC1 | 29.67 | 5.909
COc1cccc(C(=O)Oc2cc(=O)n3cccc(C)c3n2)c1 | 12.33 & 6.727 | 1.013
COCC1CC2(CCN(Cc3ccccn3)CC2)CN1c1ncccn1.O=C(O)C(F)(F)F.O=C(O)C(F)(F)F.O=C(O)C(F)(F)F (stereo unspecified) | -16.53 | -
CN1CCc2[nH]cnc2C12CCN(Cc1ccc3nsnc3c1)CC2 | 45.21 | -8.277
CC(=O)N1CCC2(CCN(CC(C)C)C2)C1 (stereo unspecified) | 4.152 | -1.018
CN(C)C(=O)[C@@H]1CC[C@@H]2[C@@H](CCN2Cc2nccs2)O1 | - | 7.294
CCS(=O)(=O)N1CCc2ccc(NC(=O)NC(C)(C)C)cc21 | 9.463 | 3.73
CC(=O)N1CCCN(Cc2csc(C)n2)c2ccccc21 | 8.03 | 0.319
Cc1ccc(N2CCc3ncnc(C4CC4)c3CC2)nn1 | 15.55 | -0.7426
Fc1ccc(OCc2nnc([C@H]3CCN(Cc4ccncc4)C3)o2)cc1 | -18.48 | 16.93
CNC(=O)c1cccc(CNC(=O)C2CC(=O)N(CCN(C)C)C2)c1 (stereo unspecified) | 25.99 | 0.8929
Cc1nn(C)c(C)c1CN(C(=O)c1cc(Cl)c[nH]c1=O)C(C)C | 14.01 | -
Cn1cccc1C(=O)N1C[C@@H]2C[C@@H](c3nnc(C4CC4)o3)O[C@@H]2C1 | - | 4.938
CCN(CC)Cc1cnc2n1CCN(C1CCOC1)CC2 (stereo unspecified) | 22.91 | 1.525
COc1ccc([C@@H]2CN(C(=O)CCn3cccn3)C[C@H]2NC(C)=O)cc1 | -5.649 | -1.961
CC(=O)N1CC[C@H]2OCC[C@@H](C(=O)N3CCCCO3)[C@@H]2C1 | - | 4.441
O=C(NCc1ccco1)[C@H]1C[C@@H]2CCN(c3cccc(F)c3)C[C@H]2O1 | - | -37.61
CC(C)c1nc(CN2CCCN(Cc3nccn3C)CC2)no1 | 1.051 | -1.305
O=c1cc(N2CCCC2)cnn1Cc1noc(C2CCCO2)n1 (stereo unspecified) | 5.744 | 1.703
O=C(CSc1ncccn1)N1C[C@H]2CC[C@@H]1CN(Cc1ccncc1)C2 | - | 3.198
Cc1n[nH]c(C)c1-c1nccnc1CC1CCNC1 (stereo unspecified) | 30.13 | 9.589
O=C(CCc1ccc(Cl)s1)N1CCCC(N2CCNC2=O)C1 (stereo unspecified) | 6.074 | 1.139
Cn1c(C(=O)NCC2(N)CCCC2)cc2ccccc21 | 29.45 | -0.4854
COc1cccc(OCC2CCCN(C(=O)c3cnc(C)nc3O)C2)c1 (stereo unspecified) | 2.852 | 4.904
CCc1nc(C2CCCN2Cc2nnc(CC)o2)no1 (stereo unspecified) | 0.9786 | 9.719
CN(Cc1ccc(F)cc1)[C@@H]1CN(C(=O)c2cccs2)C[C@H]1O | 2.104 | 0.1309
CC(C)c1nn(C)c(N2CCOCC2)c1CNCC(=O)N(C)C | 16.56 | -0.7772
COCCN1CCc2c(CNC(=O)c3nccn3C)cncc2C1 | - | 2.956
CCc1cc(C(=O)N2CCC(C3CCN(c4ncccn4)CC3)C2)on1 (stereo unspecified) | 4.034 | -3.194

The last 6 entries again:

With COc1cccc(OCC2CCCN(C(=O)c3cnc(C)nc3O)C2)c1 (stereo unspecified) the screen gave Leishmania in macrophages: 2.852%; CoaBC: 4.904%.
With CCc1nc(C2CCCN2Cc2nnc(CC)o2)no1 (stereo unspecified) the screen gave Leishmania in macrophages: 0.9786%; CoaBC: 9.719%.
With CN(Cc1ccc(F)cc1)[C@@H]1CN(C(=O)c2cccs2)C[C@H]1O the screen gave Leishmania in macrophages: 2.104%; CoaBC: 0.1309%.
With CC(C)c1nn(C)c(N2CCOCC2)c1CNCC(=O)N(C)C the screen gave Leishmania in macrophages: 16.56%; CoaBC: -0.7772%.
With COCCN1CCc2c(CNC(=O)c3nccn3C)cncc2C1 the screen gave CoaBC: 2.956%.
With CCc1cc(C(=O)N2CCC(C3CCN(c4ncccn4)CC3)C2)on1 (stereo unspecified) the screen gave Leishmania in macrophages: 4.034%; CoaBC: -3.194%.